Laboratory results from paper PMC11986587.
For at least one entry, the source does not settle the construct or the ends of the probe. At least one verdict rests on a figure or table, not on a statement of the authors. Tags and fusion partners may be left off the protein sequences shown.

Target: T1, BrRCO (UniProt A0ABQ7KTI8)
T1 sequence (looked up, limits assumed): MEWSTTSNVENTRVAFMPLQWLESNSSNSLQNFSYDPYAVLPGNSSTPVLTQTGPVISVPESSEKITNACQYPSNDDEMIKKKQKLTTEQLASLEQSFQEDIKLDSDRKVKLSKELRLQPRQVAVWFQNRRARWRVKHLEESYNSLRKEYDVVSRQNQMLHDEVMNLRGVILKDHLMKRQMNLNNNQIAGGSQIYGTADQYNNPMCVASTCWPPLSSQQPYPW
Test: EMSA
Details: unlabeled probe used as competitor; EMSA: room temperature, 30 min; non-denaturing 6% PAGE, 0.5x TBE, 80 V, 1 h, 4 C; binding buffer, salt and pH not given; recombinant protein; protein details: His (pET30a); label: 5' biotin

AATTTTGATTATTATAGATG (double strand) [BrACP5 probe 2]
binding result: binds

TTAATCAAATAATTCTGATT (double strand) [BrACP5 probe 1]
binding result: binds
